Results deposited as PubChem BioAssay AID504793 (Drosophila RNAi Screening Center, 2011)
The screen tested about 23,000 reagents; this is a random part of those that have a named target and a result. In the full data, 62 (0.27%) got an active call. 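Calls come from follow-up tests whose scores are not deposited, so confirmed genes may have low counts here; counts are not normalised per plate.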 The raw values are shown without normalisation. Unmarked entries are inactive. A plus sign joins genes that one reagent is predicted to hit.

Screen: 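Genes required for cells to halt at G2/M after double-strand DNA breaks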 (primary screen)
Cell system: Drosophila S2R+ cells
Knock-down reagent: long dsRNA against Drosophila genes, about 0.25 µg dsRNA per well
Duration: 4 days of dsRNA, then 4 hours of drug before read-out
Challenge: doxorubicin 0.5 µM for 4 hours to cause double-strand breaks, in cells also given a low, harmless dose of dsRNA against nbs to sensitise the assay
Detection: 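Mitotic index as the number of phospho-histone H3-positive cells in each well following doxorubicin, given as raw counts without normalisation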
Direction: mitotic cells: higher = more cells in mitosis, weaker G2 arrest
Hit rule: 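Genes are called active only when high mitotic counts were reproduced with independent dsRNAs and mitosis was checked for delay without damage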
Calls: active = confirmed in follow-up tests; inactive = not confirmed

predicted target | amplicon | mitotic cells, replicate 1 | mitotic cells, replicate 2
abo (abnormal oocyte) | DRSC02926 | 6 | –
CG31139 | DRSC21393 | 22 | –
CG17646 | DRSC00507 | 7 | –
CadN2 + CG42830 | DRSC03062 | 5 | –
CadN2 + CG42830 | DRSC03063 | 4 | –
CadN2 + CG42830 | DRSC03064 | 7 | –
gas (gasoline) | DRSC04521 | 8 | –
cpb (capping protein beta) | DRSC00809 | 2 | –
cpb (capping protein beta) | DRSC29870 | 7 | –
I-3 (Inhibitor-3) | DRSC20479 | 5 | –
stac (staccato) | DRSC13693 | 2 | –
stac (staccato) | DRSC14392 | 6 | –
stac (staccato) | DRSC22197 | 7 | –
pum (pumilio) | DRSC12726 | 9 | –
pum (pumilio) | DRSC17038 | 3 | –
pum (pumilio) | DRSC22758 | 10 | –
pum (pumilio) | DRSC22794 | 14 | –
pum (pumilio) | DRSC23430 | 4 | –
brwl (brickwall) | DRSC01080 | 5 | –
brwl (brickwall) | DRSC24965 | 5 | –
Ocrl (Oculocerebrorenal syndrome of Lowe) | DRSC18576 | 4 | –
Dpp10 (Dipeptidyl peptidase 10) | DRSC00942 | 7 | –
Dpp10 (Dipeptidyl peptidase 10) | DRSC02139 | 6 | –
Nop17l (Nop17 like) | DRSC06556 | 6 | –
Nop17l (Nop17 like) | DRSC29430 | 3 | –
Non2 (Novel nucleolar protein 2) | DRSC08272 | 2 | –
Non2 (Novel nucleolar protein 2) | DRSC25342 | 7 | –
CG4594 | DRSC02762 | 6 | –
CG14609 | DRSC12553 | 6 | –
Duba (Deubiquitinating enzyme A) | DRSC10582 | 6 | –
et (eye transformer) | DRSC19582 | 6 | –
CG9459 | DRSC16496 | 6 | –
mRpS25 (mitochondrial ribosomal protein S25) | DRSC19598 | 12 | –
NimB4 (Nimrod B4) | DRSC01884 | 9 | –
NimB4 (Nimrod B4) | DRSC24265 | 4 | –
Abi (Abelson interacting protein) | DRSC14099 | 13 | –
Abi (Abelson interacting protein) | DRSC27275 | 5 | –
CG10710 | DRSC09784 | 5 | –
CG9164 | DRSC19087 | 26 | –
CG9164 | DRSC20162 | 7 | –
CG9164 | DRSC23596 | 10 | –
dlg1 (discs large 1) | DRSC18896 | 12 | –
dlg1 (discs large 1) | DRSC19767 | 4 | –
dlg1 (discs large 1) | DRSC20324 | 5 | –
dlg1 (discs large 1) | DRSC29546 | 10 | –
CG42331 | DRSC14633 | 7 | –
CG42331 | DRSC16126 | 14 | –
CG42331 | DRSC25930 | 5 | –
CG4953 | DRSC02792 | 9 | –
mRpL2 (mitochondrial ribosomal protein L2) | DRSC10896 | 6 | –
l(2)k09848 (lethal (2) k09848) | DRSC04894 | 3 | –
CG32751 | DRSC21770 | 11 | –
kl-2 (male fertility factor kl2) | DRSC21136 | 7 | –
rau | DRSC03125 | 4 | –
rau | DRSC29748 | 7 | –
Ttd14 (TRPL translocation defect 14) | DRSC06632 | 4 | –
Ttd14 (TRPL translocation defect 14) | DRSC06942 | 6 | –
obst-I (obstructor-I) | DRSC08339 | 7 | –
CG12054 | DRSC23137 | 13 | –
CG2794 | DRSC00534 | 6 | –
CG7458 | DRSC11829 | 11 | –
CG7458 | DRSC21340 | 15 | –
bif (bifocal) | DRSC18901 | 10 | –
bif (bifocal) | DRSC20313 | 15 | –
bif (bifocal) | DRSC28382 | 5 | –
CG31091 | DRSC15933 | 7 | –
Naglu (N-acetyl-alpha-glucosaminidase) | DRSC02267 | 9 | –
CG8209 | DRSC10970 | 9 | –
CG8209 | DRSC28217 | 8 | –
Opbp (Optix-binding protein) | DRSC04966 | 8 | –
Opbp (Optix-binding protein) | DRSC28850 | 6 | –
S-Lap1 (Sperm-Leucylaminopeptidase 1) | DRSC10627 | 6 | –
Mp20 (Muscle protein 20) | DRSC07474 | 5 | –
Mp20 (Muscle protein 20) | DRSC29793 | 8 | –
Pxd (Peroxidase) | DRSC16805 | 9 | –
Npc2g (Niemann-Pick type C-2g) | DRSC14296 | 9 | –
yip7 (yippee interacting protein 7) | DRSC11410 | 1 | –
yip7 (yippee interacting protein 7) | DRSC25234 | 5 | –
Syp (Syncrip) | DRSC13444 | 12 | –
Syp (Syncrip) | DRSC15286 | 5 | –
Syp (Syncrip) | DRSC29126 | 6 | –
brp (bruchpilot) | DRSC06245 | 8 | –
brp (bruchpilot) | DRSC06246 | 6 | –
brp (bruchpilot) | DRSC06801 | 7 | –
brp (bruchpilot) | DRSC21893 | 7 | –
brp (bruchpilot) | DRSC29170 | 5 | –
brp (bruchpilot) | DRSC29721 | 9 | –
CG5882 | DRSC15907 | 22 | –
CG34376 | DRSC14696 | 8 | –
CG34376 | DRSC14701 | 11 | –
CG34376 | DRSC24983 | 1 | –
CG34376 | DRSC25207 | 7 | –
SmydA-9 (SET and MYND domain containing, arthropod-specific, member 9) | DRSC17814 | 10 | –
CG44098 | DRSC12214 | 12 | –
CG44098 | DRSC12327 | 2 | –
CG44098 | DRSC23643 | 3 | –
CG44098 | DRSC24166 | 5 | –
CG15611 | DRSC06563 | 4 | –
CG15611 | DRSC06564 | 3 | –
CG15431 | DRSC00446 | 2 | –
CG15431 | DRSC29532 | 4 | –
PpY-55A (Protein phosphatase Y at 55A) | DRSC07513 | 5 | –
PpY-55A (Protein phosphatase Y at 55A) | DRSC23328 | 7 | –
PpY-55A (Protein phosphatase Y at 55A) | DRSC26547 | 16 | –
ttm2 (tiny tim 2) | DRSC08268 | 12 | –
RapGAP1 (Rap GTPase activating protein 1) | DRSC02293 | 5 | 12
RapGAP1 (Rap GTPase activating protein 1) | DRSC02294 | 4 | –
RapGAP1 (Rap GTPase activating protein 1) | DRSC03406 | 4 | –
RapGAP1 (Rap GTPase activating protein 1) | DRSC28628 | 6 | –
RapGAP1 (Rap GTPase activating protein 1) | DRSC29428 | 4 | –
